Data reported in paper PMC10507666 (The Journal of Organic Chemistry, 2023).
Strings that start with PEPTIDE1 are HELM notation: dots part the residues, brackets hold end groups and non-standard residues. For part of these data: One purity is given for all peptides; the source may state it once.

Columns and labels:
[1] = Fmoc solid-phase peptide synthesis; Rink amide AM resin; HATU/DIPEA; conditions: whole synthesis, TFA salt
[2] = general procedure: Fmoc solid-phase peptide synthesis; HATU/DIPEA; conditions: whole synthesis, λ = 210 nm, TFA salt
[3] = general procedure: Fmoc solid-phase peptide synthesis; Rink amide AM resin; HATU/DIPEA; conditions: whole synthesis, scale 0.256 mmol, TFA salt

Substance | isolated mass ([1]; scale 0.192 mmol) [mg] | isolated yield ([1]; scale 0.192 mmol) [%] | final HPLC purity [2] [%] | isolated mass [3] [mg] | isolated yield [3] [%] | isolated mass ([1]; scale 0.128 mmol) [mg] | isolated yield ([1]; scale 0.128 mmol) [%]
PEPTIDE1{[CF3S-Tyr].P.W.F.[am]}$$$$V2.0 | 29.8 | 19 | >99 | – | – | – | –
PEPTIDE1{Y.P.W.F.[am]}$$$$V2.0 | – | – | >99 | 44.6 | 24 | – | –
PEPTIDE1{Y.P.[CF3S-Trp].F.[am]}$$$$V2.0 | – | – | >99 | – | – | 27.1 | 26
